This note sets out measurements from the supplement of paper PMC10849652.

Sequences of proteins named here, by UniProt entry; tags and fusion partners are left off. A change or cut given only in a name is not applied to a line headed by its entry.
UniProt Q9H4G0, whole entry, looked up: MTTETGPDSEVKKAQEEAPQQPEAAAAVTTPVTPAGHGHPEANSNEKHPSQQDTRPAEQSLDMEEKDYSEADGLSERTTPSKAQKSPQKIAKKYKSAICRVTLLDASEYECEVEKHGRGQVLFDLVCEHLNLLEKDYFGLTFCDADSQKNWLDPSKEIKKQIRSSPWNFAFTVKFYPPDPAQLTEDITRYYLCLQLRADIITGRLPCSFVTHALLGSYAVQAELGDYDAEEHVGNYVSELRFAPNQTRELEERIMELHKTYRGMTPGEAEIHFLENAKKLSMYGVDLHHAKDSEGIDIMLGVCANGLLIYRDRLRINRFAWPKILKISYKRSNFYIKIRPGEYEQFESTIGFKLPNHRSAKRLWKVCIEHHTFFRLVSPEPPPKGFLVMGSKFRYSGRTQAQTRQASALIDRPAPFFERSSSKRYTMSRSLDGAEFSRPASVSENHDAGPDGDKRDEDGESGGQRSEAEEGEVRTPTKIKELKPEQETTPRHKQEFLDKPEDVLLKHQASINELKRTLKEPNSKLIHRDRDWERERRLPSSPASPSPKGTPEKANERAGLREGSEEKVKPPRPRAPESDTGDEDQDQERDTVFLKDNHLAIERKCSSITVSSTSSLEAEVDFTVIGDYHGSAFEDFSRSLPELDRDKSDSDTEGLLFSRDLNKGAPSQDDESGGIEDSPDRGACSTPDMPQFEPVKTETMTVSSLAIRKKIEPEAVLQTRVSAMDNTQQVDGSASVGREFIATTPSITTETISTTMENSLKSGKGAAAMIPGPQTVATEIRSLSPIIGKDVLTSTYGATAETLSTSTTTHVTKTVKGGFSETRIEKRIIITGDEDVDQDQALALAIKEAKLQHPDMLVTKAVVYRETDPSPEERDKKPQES
UniProt Q09472, whole entry, looked up: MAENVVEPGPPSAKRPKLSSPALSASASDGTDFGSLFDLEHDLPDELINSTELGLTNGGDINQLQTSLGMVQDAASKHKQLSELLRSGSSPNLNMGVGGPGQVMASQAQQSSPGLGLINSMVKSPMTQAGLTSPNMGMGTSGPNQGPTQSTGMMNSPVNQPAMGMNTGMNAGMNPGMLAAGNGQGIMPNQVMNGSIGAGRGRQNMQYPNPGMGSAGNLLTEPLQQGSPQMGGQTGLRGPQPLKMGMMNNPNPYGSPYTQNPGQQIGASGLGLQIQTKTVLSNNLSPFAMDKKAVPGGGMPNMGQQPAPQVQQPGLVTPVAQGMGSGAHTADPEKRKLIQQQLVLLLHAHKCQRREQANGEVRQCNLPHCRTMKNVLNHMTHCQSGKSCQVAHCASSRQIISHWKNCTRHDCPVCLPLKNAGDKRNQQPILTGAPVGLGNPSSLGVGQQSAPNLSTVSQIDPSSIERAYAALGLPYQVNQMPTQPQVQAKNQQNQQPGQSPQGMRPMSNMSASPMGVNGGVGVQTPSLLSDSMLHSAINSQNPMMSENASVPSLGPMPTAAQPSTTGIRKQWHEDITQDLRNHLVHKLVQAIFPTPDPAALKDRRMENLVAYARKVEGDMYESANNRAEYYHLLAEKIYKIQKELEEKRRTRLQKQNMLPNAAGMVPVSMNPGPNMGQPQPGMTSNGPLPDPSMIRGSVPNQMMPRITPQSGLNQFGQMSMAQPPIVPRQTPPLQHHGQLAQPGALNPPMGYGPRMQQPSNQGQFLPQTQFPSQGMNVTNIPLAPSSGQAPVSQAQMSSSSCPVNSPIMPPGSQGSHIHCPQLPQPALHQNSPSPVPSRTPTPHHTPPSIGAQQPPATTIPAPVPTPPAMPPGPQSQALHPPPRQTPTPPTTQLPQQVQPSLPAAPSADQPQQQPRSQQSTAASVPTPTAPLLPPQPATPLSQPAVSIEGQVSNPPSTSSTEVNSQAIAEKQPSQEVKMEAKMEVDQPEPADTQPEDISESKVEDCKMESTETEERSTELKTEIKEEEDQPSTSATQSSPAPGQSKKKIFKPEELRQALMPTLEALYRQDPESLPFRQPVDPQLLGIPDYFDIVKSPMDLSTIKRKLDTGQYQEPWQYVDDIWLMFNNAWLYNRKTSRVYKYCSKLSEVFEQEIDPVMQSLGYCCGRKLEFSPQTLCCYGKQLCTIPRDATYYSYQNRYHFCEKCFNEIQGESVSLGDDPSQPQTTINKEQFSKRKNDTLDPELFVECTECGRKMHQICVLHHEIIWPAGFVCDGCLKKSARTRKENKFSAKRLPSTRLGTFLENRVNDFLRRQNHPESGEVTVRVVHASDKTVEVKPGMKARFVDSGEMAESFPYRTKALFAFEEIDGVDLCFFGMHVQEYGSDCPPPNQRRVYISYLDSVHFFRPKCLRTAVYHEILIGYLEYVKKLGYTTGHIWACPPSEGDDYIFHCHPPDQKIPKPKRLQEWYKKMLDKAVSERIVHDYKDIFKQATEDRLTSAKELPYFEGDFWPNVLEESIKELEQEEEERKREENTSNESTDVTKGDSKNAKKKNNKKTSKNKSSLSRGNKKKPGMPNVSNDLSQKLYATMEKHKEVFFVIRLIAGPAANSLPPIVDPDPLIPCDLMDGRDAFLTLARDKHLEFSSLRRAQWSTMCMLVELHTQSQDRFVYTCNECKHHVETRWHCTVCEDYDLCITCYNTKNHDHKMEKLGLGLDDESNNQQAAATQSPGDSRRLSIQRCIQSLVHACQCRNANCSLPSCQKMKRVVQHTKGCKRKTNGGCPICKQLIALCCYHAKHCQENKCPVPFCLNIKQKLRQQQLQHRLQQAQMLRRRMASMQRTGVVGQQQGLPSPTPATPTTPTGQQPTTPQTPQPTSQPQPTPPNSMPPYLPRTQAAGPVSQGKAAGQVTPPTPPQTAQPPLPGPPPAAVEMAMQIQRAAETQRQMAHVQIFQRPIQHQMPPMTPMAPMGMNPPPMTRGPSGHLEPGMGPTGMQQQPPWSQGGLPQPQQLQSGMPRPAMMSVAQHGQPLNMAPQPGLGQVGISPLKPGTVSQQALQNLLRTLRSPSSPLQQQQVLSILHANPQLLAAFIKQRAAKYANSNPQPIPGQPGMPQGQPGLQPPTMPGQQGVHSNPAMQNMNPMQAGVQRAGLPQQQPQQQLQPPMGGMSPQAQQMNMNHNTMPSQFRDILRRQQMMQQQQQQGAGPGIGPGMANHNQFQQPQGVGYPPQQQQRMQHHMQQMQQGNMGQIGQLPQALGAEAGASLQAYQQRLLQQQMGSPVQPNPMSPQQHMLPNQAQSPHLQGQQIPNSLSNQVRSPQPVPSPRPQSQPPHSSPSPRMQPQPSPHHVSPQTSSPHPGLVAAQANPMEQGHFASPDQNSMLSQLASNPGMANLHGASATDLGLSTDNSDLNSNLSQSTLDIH
UniProt Q8NFI3: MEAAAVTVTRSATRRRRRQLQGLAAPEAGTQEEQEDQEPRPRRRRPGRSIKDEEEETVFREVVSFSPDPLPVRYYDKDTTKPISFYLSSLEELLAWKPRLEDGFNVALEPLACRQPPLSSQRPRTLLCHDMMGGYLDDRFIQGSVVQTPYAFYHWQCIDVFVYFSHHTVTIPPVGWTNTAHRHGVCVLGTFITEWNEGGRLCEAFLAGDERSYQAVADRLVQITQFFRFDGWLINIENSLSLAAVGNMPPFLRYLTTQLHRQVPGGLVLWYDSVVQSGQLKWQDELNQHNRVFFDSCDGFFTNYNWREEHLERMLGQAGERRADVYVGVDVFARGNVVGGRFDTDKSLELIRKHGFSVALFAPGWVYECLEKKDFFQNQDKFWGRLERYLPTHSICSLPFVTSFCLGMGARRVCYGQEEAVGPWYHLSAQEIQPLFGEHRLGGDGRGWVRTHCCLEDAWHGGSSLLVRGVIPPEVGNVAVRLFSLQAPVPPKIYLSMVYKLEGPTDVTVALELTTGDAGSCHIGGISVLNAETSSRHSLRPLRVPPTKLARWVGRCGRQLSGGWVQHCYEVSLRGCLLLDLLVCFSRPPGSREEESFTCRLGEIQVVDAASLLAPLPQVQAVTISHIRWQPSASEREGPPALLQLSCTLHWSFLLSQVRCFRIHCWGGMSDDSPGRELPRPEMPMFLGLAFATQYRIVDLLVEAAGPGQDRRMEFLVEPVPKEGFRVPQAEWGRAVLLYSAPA
UniProt Q13144, whole entry, looked up: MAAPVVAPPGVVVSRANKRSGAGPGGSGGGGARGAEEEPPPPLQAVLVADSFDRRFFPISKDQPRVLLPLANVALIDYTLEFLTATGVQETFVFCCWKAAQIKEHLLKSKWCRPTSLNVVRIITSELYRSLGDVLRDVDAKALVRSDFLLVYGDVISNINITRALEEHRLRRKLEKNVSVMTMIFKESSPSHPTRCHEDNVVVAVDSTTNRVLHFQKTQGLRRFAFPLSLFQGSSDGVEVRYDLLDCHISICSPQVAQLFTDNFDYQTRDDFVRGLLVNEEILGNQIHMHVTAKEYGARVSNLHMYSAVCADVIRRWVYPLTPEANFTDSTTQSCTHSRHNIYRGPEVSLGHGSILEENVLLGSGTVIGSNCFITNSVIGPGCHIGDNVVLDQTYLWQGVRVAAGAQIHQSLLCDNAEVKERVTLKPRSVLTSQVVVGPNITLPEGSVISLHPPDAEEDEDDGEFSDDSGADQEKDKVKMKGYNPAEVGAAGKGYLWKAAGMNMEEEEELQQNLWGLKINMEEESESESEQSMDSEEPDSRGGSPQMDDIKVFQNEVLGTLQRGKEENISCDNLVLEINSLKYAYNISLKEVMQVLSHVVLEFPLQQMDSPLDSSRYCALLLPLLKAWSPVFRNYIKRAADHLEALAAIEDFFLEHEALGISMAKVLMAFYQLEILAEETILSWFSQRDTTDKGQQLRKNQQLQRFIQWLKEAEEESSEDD
UniProt O75821, whole entry, looked up: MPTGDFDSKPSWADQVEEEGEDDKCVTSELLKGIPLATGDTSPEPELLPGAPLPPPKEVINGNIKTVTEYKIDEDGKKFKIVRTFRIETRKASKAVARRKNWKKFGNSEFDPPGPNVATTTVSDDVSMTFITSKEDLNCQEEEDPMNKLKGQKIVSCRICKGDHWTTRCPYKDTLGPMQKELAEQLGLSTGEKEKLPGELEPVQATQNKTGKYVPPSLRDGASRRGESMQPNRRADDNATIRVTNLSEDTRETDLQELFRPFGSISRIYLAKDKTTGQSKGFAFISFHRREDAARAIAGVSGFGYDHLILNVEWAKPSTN
UniProt Q32P44: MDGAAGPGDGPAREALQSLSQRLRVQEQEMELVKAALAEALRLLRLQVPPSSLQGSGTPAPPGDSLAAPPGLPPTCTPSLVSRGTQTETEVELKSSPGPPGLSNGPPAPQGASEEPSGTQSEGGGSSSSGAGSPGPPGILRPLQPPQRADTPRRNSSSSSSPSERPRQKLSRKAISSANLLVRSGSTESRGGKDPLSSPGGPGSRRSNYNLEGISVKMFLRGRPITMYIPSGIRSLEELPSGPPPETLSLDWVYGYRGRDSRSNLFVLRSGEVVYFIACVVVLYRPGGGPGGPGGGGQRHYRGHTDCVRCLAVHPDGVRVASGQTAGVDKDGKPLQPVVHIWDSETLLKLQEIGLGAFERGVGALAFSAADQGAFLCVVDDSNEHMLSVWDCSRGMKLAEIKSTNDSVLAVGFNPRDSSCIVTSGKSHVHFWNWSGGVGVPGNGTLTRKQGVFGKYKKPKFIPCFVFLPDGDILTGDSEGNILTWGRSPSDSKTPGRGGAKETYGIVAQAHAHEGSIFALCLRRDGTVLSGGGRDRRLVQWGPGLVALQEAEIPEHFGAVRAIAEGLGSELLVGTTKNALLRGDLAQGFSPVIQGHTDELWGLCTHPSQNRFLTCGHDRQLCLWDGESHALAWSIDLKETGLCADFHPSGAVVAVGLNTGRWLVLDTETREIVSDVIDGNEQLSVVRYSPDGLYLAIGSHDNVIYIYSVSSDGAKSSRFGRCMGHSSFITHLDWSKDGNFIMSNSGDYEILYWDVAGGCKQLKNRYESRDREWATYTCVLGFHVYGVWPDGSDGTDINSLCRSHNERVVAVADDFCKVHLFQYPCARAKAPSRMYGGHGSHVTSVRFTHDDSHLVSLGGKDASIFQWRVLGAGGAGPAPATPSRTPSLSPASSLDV
UniProt Q9BV81: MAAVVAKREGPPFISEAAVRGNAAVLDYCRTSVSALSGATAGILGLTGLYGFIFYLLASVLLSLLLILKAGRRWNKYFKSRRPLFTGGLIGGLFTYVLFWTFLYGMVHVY
UniProt P60228, whole entry, looked up: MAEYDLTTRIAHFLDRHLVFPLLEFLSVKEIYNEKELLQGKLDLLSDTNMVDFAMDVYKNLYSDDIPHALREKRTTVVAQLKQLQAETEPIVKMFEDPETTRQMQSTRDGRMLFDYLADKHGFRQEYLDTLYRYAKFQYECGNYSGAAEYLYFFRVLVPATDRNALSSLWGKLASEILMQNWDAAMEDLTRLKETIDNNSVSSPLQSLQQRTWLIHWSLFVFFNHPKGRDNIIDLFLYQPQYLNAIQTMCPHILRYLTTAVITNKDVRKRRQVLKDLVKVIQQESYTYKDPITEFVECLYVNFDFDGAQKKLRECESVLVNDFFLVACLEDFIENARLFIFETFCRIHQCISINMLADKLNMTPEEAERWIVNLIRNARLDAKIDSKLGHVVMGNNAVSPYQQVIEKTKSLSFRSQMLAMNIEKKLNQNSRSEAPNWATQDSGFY

Some of the results follow.

Compound in the experiment: CN1CCN(c2nc(C3=C(c4c[nH]c5ccccc45)C(=O)NC3=O)c3ccccc3n2)CC1 [sotrastaurin]
Nature of the experiment: log2 fold change, soluble protein after heating vs DMSO (PISA); higher = thermal stabilisation; K562 lysate, 10 uM; active = over 0.2 and 3.5 SD of the protein, either way, in both replicates (recomputed). The method in brief:
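Quantification was by TMTpro 16plex LC-MS/MS with equalised channel sums, applied to the supernatant after 21,000xg for 90 min. Samples were crude K562 extract at 1 mg/mL protein in PBS pH 7.4 with 1 mM MgCl2, treated with 10 μM compound for 30 min, heated for 3 min across 48°C-58°C, pooled and brought to 0.5% NP-40 at 4°C. Values are log-two fold changes in thermal stability relative to solvent controls, from duplicates.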
With EPB41L1 (UniProt Q9H4G0), the log2 fold change is inactive: 0.102. The value for ELAC2 (UniProt Q9BQ52) was inactive: -0.055; that for EIF4B (UniProt P23588) was inactive: -0.013.

Turning to EIF3F (UniProt O00303), the log2 fold change was inactive: 0.038. Regarding EIF2D (UniProt P41214), the log2 fold change is inactive: 0.026. To EMC2 (UniProt Q15006) belongs inactive: 0.053; to EP300 (UniProt Q09472), inactive: -0.022; to EIF5B (UniProt O60841), inactive: -0.011. As to ERCC2 (UniProt P18074), the log2 fold change is inactive: 0.06. To EMC10 (UniProt Q5UCC4) belongs inactive: -0.045; to EML2 isoform 3 (UniProt O95834), inactive: 0.032; to EMC8 (UniProt O43402), inactive: -0.022. To EIF3D (UniProt O15371) belongs inactive: -0.009; to ENGASE (UniProt Q8NFI3), inactive: -0.008.

For the target EPS15L1 isoform 2 (UniProt Q9UBC2), the log2 fold change is inactive: 0.006. With EP400P1 isoform 6 (UniProt Q6ZTU2), the log2 fold change is inactive: 0.049. Take ENTPD5 (UniProt O75356): the log2 fold change was inactive: 0.014.

On to ELP6 (UniProt Q0PNE2), for which the log2 fold change is inactive: 0.01.

On to EIF2B5 (UniProt Q13144), for which the log2 fold change is inactive: 0.038. For EIF3G (UniProt O75821), the log2 fold change was inactive: 0.003. On to ELOC (UniProt Q15369), for which the log2 fold change was inactive: -0.04. To EML3 (UniProt Q32P44) belongs inactive: -0.016; to ELOA (UniProt Q14241), inactive: -0.005. The value for EIF2AK4 (UniProt Q9P2K8) was inactive: 0.009. To EMC3 (UniProt Q9P0I2) belongs inactive: -0.026; to EMP3 (UniProt P54852), inactive: -0.029.

In the case of EMC4 (UniProt Q5J8M3), the log2 fold change was inactive: -0.014. The value for EPB41L3 (UniProt Q9Y2J2) was inactive: 0.008; that for EIF4EBP2 (UniProt Q13542) was inactive: -0.028; that for ERCC6L (UniProt Q2NKX8) was inactive: 0.036. Take EIF4E isoform 2 (UniProt P06730): the log2 fold change was inactive: -0.005.

Regarding EMC6 (UniProt Q9BV81), the log2 fold change was inactive: -0.008. Regarding EIF4A3 (UniProt P38919), the log2 fold change is inactive: 0.025. For the target EIF3E (UniProt P60228), the log2 fold change is inactive: 0.067. Turning to EPHX2 (UniProt P34913), the log2 fold change is inactive: 0.06.
